Source: PMC11348242
Results are given in words; binding and its absence hold for the method and conditions named. Binding seen in cells or lysates may run through a third protein. These calls come from enrichment with a bait or labelling near it, and not all partners need be listed.

Protein sequences, listed by entry. Tags and fused reporters are not part of them.
UniProt P12956: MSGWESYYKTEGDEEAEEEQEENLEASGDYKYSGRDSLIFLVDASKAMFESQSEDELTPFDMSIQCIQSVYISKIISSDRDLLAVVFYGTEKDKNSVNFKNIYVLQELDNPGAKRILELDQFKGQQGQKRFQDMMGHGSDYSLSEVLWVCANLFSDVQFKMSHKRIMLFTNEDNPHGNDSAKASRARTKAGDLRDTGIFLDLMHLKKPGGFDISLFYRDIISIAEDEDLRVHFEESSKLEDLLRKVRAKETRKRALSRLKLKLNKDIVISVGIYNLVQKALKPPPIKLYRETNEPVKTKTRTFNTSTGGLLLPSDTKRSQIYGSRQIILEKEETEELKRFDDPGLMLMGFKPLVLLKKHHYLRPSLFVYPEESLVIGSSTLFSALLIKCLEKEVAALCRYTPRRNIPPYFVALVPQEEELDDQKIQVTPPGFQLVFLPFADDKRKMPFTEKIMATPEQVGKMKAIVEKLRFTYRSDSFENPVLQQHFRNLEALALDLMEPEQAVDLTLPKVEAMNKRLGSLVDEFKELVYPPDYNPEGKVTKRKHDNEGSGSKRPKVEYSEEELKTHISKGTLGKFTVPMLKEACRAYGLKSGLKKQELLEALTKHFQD
UniProt P13010: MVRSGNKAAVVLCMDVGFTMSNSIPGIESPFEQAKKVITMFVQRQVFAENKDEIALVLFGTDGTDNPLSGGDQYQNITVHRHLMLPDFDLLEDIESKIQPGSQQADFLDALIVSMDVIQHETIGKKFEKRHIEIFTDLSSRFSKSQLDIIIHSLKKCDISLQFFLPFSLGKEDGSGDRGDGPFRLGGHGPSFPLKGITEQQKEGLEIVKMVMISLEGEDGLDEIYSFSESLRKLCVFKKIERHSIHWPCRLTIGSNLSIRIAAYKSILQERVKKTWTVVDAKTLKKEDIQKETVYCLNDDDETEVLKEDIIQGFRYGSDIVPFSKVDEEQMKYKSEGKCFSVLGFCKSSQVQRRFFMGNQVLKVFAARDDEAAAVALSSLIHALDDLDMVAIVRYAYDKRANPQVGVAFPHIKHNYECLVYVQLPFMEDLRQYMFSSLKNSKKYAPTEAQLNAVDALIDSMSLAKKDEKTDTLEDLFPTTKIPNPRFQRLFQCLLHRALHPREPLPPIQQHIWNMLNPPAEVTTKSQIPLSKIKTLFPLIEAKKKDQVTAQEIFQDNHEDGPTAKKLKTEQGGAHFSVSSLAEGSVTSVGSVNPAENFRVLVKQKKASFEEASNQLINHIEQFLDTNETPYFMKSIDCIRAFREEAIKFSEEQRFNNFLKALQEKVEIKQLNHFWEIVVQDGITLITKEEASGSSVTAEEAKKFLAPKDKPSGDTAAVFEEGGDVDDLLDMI

Molecular target: T1, macrophage migration inhibitory factor (MIF) (human (endogenous in HeLa and HEK293)) (UniProt P14174)
T1 sequence: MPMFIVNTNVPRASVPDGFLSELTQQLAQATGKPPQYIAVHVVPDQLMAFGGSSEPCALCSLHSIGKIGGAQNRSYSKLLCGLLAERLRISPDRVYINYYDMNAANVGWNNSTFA
Experiment: affinity purification with mass spectrometry; MIF immunoprecipitated in HeLa cells, then mass spectrometry; MIF-KO HeLa as negative control; physiological and ferroptotic conditions

Row | Substance | binding
1 | Ku70 (from UniProt P12956 1-609) | binds
2 | Ku80 (from UniProt P13010 1-732) | binds
